Measured values reported in article PMC10079018.
Results are given in words; binding and its absence hold for the method and conditions named. Binding seen in cells or lysates may run through a third protein. Some results given as binding are weak or reduced against the parent protein; the word gives no strength.

Protein sequences, listed by entry. Tags and fused reporters are not part of them.
UniProt Q62940: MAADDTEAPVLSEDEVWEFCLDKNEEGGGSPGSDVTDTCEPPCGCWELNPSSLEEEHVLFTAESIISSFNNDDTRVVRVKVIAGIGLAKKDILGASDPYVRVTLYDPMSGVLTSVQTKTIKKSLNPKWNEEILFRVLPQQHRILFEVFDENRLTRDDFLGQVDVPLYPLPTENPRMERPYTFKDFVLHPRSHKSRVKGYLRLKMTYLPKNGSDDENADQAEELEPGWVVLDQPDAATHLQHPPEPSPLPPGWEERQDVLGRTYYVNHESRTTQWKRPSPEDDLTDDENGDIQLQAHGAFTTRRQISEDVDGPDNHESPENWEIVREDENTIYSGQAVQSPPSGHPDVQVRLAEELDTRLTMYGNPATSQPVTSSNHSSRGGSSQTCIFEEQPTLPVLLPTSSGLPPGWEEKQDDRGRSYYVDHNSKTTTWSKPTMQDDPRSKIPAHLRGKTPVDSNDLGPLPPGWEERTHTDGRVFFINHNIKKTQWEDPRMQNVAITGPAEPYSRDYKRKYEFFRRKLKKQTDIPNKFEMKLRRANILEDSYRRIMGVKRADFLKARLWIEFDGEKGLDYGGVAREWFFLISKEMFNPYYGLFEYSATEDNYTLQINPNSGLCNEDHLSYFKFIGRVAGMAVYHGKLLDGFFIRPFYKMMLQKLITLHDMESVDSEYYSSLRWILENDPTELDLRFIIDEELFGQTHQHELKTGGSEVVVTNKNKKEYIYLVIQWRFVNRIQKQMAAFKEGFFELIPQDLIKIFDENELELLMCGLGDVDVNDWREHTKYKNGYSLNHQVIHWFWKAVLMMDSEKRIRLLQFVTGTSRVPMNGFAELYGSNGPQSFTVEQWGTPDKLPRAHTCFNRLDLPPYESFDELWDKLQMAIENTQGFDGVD

Target: T1, Nedd4 family interacting protein 1 (Ndfip1) (rat (endogenous in hippocampal CA1 tissue)) (UniProt Q5U2S1)
T1 sequence: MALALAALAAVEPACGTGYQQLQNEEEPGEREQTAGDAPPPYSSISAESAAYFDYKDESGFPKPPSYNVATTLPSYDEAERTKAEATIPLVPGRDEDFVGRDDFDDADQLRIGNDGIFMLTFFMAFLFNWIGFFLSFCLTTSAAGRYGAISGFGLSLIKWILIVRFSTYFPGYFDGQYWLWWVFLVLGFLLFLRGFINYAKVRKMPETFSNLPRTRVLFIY
Assay: co-IP; rat CA1 tissue lysate (0.5 mg, RIPA lysis buffer) of non-trained and water-maze-trained rats, immunoprecipitated with anti-Ndfip1 antibody at 4°C overnight, protein A magnetic beads, immunoblotted with anti-Nedd4 and anti-Ndfip1; association decreased in trained rats

Q: For “Nedd4 (neural-precursor-cell-expressed developmentally down-regulated 4) E3 ubiquitin ligase (from UniProt Q62940 1-887)”, which binding is on record?
A: binds
